Eight molecules from PMC5882171 can be followed below.

Chains of the proteins cited; added tags and fusions are not shown.
UniProt P35189: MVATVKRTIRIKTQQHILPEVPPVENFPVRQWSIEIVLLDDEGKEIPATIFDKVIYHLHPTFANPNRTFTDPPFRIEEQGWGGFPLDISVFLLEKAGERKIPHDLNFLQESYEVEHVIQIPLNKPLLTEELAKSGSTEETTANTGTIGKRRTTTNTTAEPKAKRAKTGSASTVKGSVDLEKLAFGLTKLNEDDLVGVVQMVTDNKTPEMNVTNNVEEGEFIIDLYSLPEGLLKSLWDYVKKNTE

Experiment [1] has as its target T1, Tfg1 with C-terminal FLAG and TAP tags (yeast TFIIF subunit) (yeast) (UniProt P41895).
T1 sequence: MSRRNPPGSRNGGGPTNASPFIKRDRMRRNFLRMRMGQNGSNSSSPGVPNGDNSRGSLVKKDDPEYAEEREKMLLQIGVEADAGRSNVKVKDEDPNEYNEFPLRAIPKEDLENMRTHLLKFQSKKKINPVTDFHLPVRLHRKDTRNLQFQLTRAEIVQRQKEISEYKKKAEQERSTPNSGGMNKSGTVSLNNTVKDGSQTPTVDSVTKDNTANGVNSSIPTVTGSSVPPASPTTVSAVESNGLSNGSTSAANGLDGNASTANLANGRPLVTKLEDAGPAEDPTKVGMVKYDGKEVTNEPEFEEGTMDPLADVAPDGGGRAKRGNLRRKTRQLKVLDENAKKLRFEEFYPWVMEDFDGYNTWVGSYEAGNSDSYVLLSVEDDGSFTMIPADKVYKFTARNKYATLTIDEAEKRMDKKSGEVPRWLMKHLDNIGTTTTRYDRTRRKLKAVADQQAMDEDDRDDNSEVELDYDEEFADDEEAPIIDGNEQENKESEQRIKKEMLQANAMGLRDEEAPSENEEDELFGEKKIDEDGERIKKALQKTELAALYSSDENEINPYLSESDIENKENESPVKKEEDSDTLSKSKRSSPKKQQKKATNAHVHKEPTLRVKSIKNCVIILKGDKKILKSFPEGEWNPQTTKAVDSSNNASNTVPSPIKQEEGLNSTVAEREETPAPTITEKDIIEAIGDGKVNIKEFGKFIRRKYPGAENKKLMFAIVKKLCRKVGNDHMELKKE
The experiment in a line: affinity co-purification (IgG resin) with SDS-PAGE; subunits co-expressed from a single baculovirus in Hi5 or Sf9 cells; lysate loaded on IgG resin, washed with high salt (1 M KCl) and low salt buffer, recovered by TEV protease digestion for 1 hour at room temperature; purified complex on SDS-PAGE.

Experiment [2] concerns the target T2, Tfb1-10xHis tagged (yeast core TFIIH subunit) (yeast) (UniProt P32776).
T2 sequence: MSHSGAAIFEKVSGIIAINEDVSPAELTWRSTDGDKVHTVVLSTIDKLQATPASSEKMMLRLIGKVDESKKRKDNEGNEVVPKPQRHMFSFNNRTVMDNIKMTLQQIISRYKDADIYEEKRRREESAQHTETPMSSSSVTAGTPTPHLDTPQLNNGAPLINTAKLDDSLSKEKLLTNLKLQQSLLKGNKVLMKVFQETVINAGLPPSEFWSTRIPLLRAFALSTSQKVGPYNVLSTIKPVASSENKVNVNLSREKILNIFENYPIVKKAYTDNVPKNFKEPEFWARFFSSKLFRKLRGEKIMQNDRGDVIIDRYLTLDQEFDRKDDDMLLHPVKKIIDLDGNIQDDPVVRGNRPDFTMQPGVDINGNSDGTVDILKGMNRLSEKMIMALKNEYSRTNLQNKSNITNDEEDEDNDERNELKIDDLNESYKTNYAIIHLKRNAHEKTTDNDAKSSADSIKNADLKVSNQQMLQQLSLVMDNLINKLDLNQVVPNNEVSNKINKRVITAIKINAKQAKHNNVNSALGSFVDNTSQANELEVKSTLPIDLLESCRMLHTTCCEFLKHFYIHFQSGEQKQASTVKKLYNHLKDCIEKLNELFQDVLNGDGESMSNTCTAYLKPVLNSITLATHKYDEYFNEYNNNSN
The experiment in a line: affinity co-purification (Ni-NTA) with SDS-PAGE; subunits co-expressed from a single baculovirus in Hi5 or Sf9 cells; lysate in 50 mM Hepes-KOH pH 7.6, 400 mM KCl loaded on Ni-NTA, washed with 1 M KCl and with 100 mM potassium acetate buffer, eluted with 300 mM imidazole; purified complex on SDS-PAGE (purified Head module also blotted with anti-His, anti-Med18 and anti-Med11 as a standard).

Experiment [3] concerns the target T3, Tfb1-10xHis tagged (yeast core TFIIH subunit) (yeast), P32776.
T3 chain: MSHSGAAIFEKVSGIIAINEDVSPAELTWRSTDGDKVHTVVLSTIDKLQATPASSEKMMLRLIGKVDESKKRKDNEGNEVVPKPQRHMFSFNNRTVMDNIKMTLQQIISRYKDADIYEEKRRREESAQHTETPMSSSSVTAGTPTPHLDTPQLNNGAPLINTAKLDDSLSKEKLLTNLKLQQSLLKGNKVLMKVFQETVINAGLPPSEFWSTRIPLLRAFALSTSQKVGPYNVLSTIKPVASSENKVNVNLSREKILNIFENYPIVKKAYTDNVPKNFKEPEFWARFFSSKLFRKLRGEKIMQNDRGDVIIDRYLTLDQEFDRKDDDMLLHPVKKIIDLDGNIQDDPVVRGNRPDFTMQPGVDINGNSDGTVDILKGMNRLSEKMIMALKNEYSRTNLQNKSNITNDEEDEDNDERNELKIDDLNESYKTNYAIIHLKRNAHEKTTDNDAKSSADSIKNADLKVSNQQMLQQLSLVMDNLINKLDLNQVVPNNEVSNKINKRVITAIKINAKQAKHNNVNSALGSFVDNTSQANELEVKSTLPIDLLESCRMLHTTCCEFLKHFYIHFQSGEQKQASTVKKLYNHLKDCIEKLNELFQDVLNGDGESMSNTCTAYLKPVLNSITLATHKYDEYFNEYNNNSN
Described as above. The following applies: remark: other sources report otherwise.

The target in experiment [4] is T4, yeast Cycline C with C-terminal 10xhistidine tag (yeast) (UniProt P47821).
T4 sequence: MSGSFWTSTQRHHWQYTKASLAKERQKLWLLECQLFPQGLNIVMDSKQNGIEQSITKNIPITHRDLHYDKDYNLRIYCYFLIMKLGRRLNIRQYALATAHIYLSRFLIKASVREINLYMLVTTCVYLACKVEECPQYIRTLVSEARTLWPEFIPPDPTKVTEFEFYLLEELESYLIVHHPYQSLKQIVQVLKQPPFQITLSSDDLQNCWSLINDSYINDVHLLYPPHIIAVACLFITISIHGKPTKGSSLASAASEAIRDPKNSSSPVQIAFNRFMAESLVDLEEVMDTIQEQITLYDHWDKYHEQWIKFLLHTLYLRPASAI
Described as above.

Results are given in words; binding and its absence hold for the method and conditions named. Some binding calls cover weakened binding; strength is not graded here. Where a sequence is shown, tags or fusion partners need not be part of it.

In the case of “Tfg3 (yeast TFIIF subunit) (from UniProt P35189 1-244)”, in experiment [1], the binding result is listed as “binds”.

B1: Tfb4 (yeast core TFIIH subunit) (protein, UniProt Q12004 1-338)
chain: MDAISDPTFKHARSRKQVTEESPSLLTVIIEIAPKLWTTFDEEGNEKGSIIKVLEALIVFLNAHLAFNSANKVAVIAAYSQGIKYLYPESTSALKASESENKTRSDLKIINSDMYRRFRNVDETLVEEIYKLFELEKKQIEQNSQRSTLAGAMSAGLTYVNRISKESVTTSLKSRLLVLTCGSGSSKDEIFQYIPIMNCIFSATKMKCPIDVVKIGGSKESTFLQQTTDATNGVYLHVESTEGLIQYLATAMFIDPSLRPIIVKPNHGSVDFRTSCYLTGRVVAVGFICSVCLCVLSIIPPGNKCPACDSQFDEHVIAKLKRKPVVPRLKAKKKVTKP
On to B1, for which, in experiment [2], the binding result is recorded as “binds”.

B2: Tfg2 (yeast TFIIF subunit) (protein, UniProt P41896 1-400)
chain: MSSGSAGAPALSNNSTNSVAKEKSGNISGDEYLSQEEEVFDGNDIENNETKVYEESLDLDLERSNRQVWLVRLPMFLAEKWRDRNNLHGQELGKIRINKDGSKITLLLNENDNDSIPHEYDLELTKKVVENEYVFTEQNLKKYQQRKKELEADPEKQRQAYLKKQEREEELKKKQQQQKRRNNRKKFNHRVMTDRDGRDRYIPYVKTIPKKTAIVGTVCHECQVMPSMNDPNYHKIVEQRRNIVKLNNKERITTLDETVGVTMSHTGMSMRSDNSNFLKVGREKAKSNIKSIRMPKKEILDYLFKLFDEYDYWSLKGLKERTRQPEAHLKECLDKVATLVKKGPYAFKYTLRPEYKKLKEEERKATLGELADEQTGSAGDNAQGDAEADLEDEIEMEDVV
Consider B2, for which, in experiment [1], the binding result is recorded as “binds”.

B3: Tfb5 (yeast core TFIIH subunit), Q3E7C1 1-72 (protein)
chain: MARARKGALVQCDPSIKALILQIDAKMSDIVLEELDDTHLLVNPSKVEFVKHELNRLLSKNIYNPMDEEENQ
For the molecule B3, in experiment [3], the binding entry was “binds”.

B4: Ssl1 (yeast core TFIIH subunit) (protein, UniProt Q04673 1-461)
chain: MAPVVISESEEDEDRVAITRRTKRQVHFDGEGDDRVDQQQQQHSSSHRDRDKHVQRKKKKRLSNRNLQGSNGGYAWEDEIKRSWDLVKVDDEGDMASLVASIVEARKKRTAKKNITPYQRGIIRSLILTLDCSEAMLEKDLRPNRHAMIIQYAIDFVHEFFDQNPISQMGIIIMRNGLAQLVSQVSGNPQDHIDALKSIRKQEPKGNPSLQNALEMARGLLLPVPAHCTREVLIVFGSLSTTDPGDIHQTIDSLVSEKIRVKVLGLSAQVAICKELCKATNYGDESFYKILLDETHLKELFNEAVTPLPVNKINKGFTLVKMGFPTRIFEDTPTFCSCHSKLVYGGYFCPNCHSKVCSLPTVCPCCDLMLILSTHLARSYHHLMPLKTFAEVPTTEKFRSEDCFSCQSRFPILKNHKNGKLLTSSRYRCEDCKQEFCVDCDVFIHEILHNCPGCESKPVIT
As for B4, in experiment [2], the binding result is “binds”.

B5: Rad3 (yeast core TFIIH subunit) (protein, UniProt P06839 1-778)
chain: MKFYIDDLPVLFPYPKIYPEQYNYMCDIKKTLDVGGNSILEMPSGTGKTVSLLSLTIAYQMHYPEHRKIIYCSRTMSEIEKALVELENLMDYRTKELGYQEDFRGLGLTSRKNLCLHPEVSKERKGTVVDEKCRRMTNGQAKRKLEEDPEANVELCEYHENLYNIEVEDYLPKGVFSFEKLLKYCEEKTLCPYFIVRRMISLCNIIIYSYHYLLDPKIAERVSNEVSKDSIVIFDEAHNIDNVCIESLSLDLTTDALRRATRGANALDERISEVRKVDSQKLQDEYEKLVQGLHSADILTDQEEPFVETPVLPQDLLTEAIPGNIRRAEHFVSFLKRLIEYLKTRMKVLHVISETPKSFLQHLKQLTFIERKPLRFCSERLSLLVRTLEVTEVEDFTALKDIATFATLISTYEEGFLLIIEPYEIENAAVPNPIMRFTCLDASIAIKPVFERFSSVIITSGTISPLDMYPRMLNFKTVLQKSYAMTLAKKSFLPMIITKGSDQVAISSRFEIRNDPSIVRNYGSMLVEFAKITPDGMVVFFPSYLYMESIVSMWQTMGILDEVWKHKLILVETPDAQETSLALETYRKACSNGRGAILLSVARGKVSEGIDFDHQYGRTVLMIGIPFQYTESRILKARLEFMRENYRIRENDFLSFDAMRHAAQCLGRVLRGKDDYGVMVLADRRFSRKRSQLPKWIAQGLSDADLNLSTDMAISNTKQFLRTMAQPTDPKDQEGVSVWSYEDLIKHQNSRKDQGGFIENENKEGEQDEDEDEDIEMQ
For the molecule B5, the binding entry in experiment [2] is “binds”.

B6: yeast CDK8 (protein, UniProt P39073 1-555)
chain: MYNGKDRAQNSYQPMYQRPMQVQGQQQAQSFVGKKNTIGSVHGKAPMLMANNDVFTIGPYRARKDRMRVSVLEKYEVIGYIAAGTYGKVYKAKRQINSGTNSANGSSLNGTNAKIPQFDSTQPKSSSSMDMQANTNALRRNLLKDEGVTPGRIRTTREDVSPHYNSQKQTLIKKPLTVFYAIKKFKTEKDGVEQLHYTGISQSACREMALCRELHNKHLTTLVEIFLERKCVHMVYEYAEHDLLQIIHFHSHPEKRMIPPRMVRSIMWQLLDGVSYLHQNWVLHRDLKPANIMVTIDGCVKIGDLGLARKFHNMLQTLYTGDKVVVTIWYRAPELLLGARHYTPAVDLWSVGCIFAELIGLQPIFKGEEAKLDSKKTVPFQVNQLQRILEVLGTPDQKIWPYLEKYPEYDQITKFPKYRDNLATWYHSAGGRDKHALSLLYHLLNYDPIKRIDAFNALEHKYFTESDIPVSENVFEGLTYKYPARRIHTNDNDIMNLGSRTKNNTQASGITAGAAANALGGLGVNRRILAAAAAAAAAVSGNNASDEPSRKKNRR
In the case of B6, the binding entry in experiment [4] was “binds”.

B7: Tfb2 (yeast core TFIIH subunit) (protein, UniProt Q02939 1-513)
chain: MSDYSLKHSVTQYLEEIPQQVQNRLYTSPATCLAIYRILPPLAKFFIMAMVFNENEVPLLDLDKWVNSNGKLQFQNAIKSMKSLHLLIPNKSSGTLMINLNPTFKISLRNALTGGEVQNSFGVVVEENVVSLDLLDEYSANKWETILHFMVGTPLAKIPSEKVLNLLKHSKLMEEVNSTGEFKITNEGFQFLLQEINSQLWTLLLQYLKMIETSKMDLVDVLHFIFMLGALEVGKAYKIDALSETQRIMLQDMRDYGLVFQKHSNDSIFYPTKLALMLTSDTKTIRSASNAMDSVLRQNREEPSVNEDGANGKSTTDITTSDDLNKAGLKNQDIPDGSLIVETNFKIYSYSNSPLQIAVLSLFVHLKARFVNMVLGQITRESIRRALTNGITADQIIAYLETHAHPQMRRLAEEKLEKKLELDPNCKEPLQVLPPTVVDQIRLWQLELDRVITYEGSLYSDFETSQEYNLLSKYAQDIGVLLWKDDKKKKFFISKEGNSQVLDFAKRKLKKKQ
As for B7, in experiment [2], the binding result is “binds”.
